Reference: the supplement of paper PMC12889115
The other results are listed elsewhere or left out. Values are raw readings; no control value is given beside them.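 First-pass screen: polymyxin B was added at a level that permeabilizes the Salmonella outer membrane while sparing the inner membrane. DMSO wells, with and without polymyxin B, defined maximum growth. Because plates differed from one another, each plate's data were ranked separately and the compounds with the lowest OD600 were carried forward as hits.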

Tested on: Salmonella enterica serovar Typhimurium SL1344
Test: bacterial growth OD600 after 18 h with compound and polymyxin B; higher = more bacterial growth (less inhibition)
Conditions: 50 µM, Mueller-Hinton broth

Compound | bacterial growth OD600 (polymyxin B 0.75 µg/mL) | bacterial growth OD600 (polymyxin B 1 µg/mL)
CC(Cc1cccnc1)NC(=O)c1cc(COc2cccc3cnccc23)on1 (stereo not given) | 0.003 | –
Cc1nc(CNCC2(O)CCCN(Cc3ccc(F)c(F)c3)C2=O)cs1 (stereo not given) | – | 0.895
CC(C)NC1CCCc2nc(-c3ccccc3)ncc21 (stereo not given) | – | 0.796
OCC1CCN(c2ncc3c(n2)CCCC3NCc2cccc(F)c2)CC1 (stereo not given) | 0.787 | –
Cc1ccccc1Oc1ncccc1CNC(=O)CCc1c(C)nn(C)c1C | – | 0.964
Cc1nc2cc(OCc3cc(C(=O)N4CCN(C)C(c5ccccc5)C4)no3)ccc2s1 (stereo not given) | – | 0.011
CN(C)C(=O)N1CCC(C(=O)NC2CC(C)(C)Cc3c2cnn3-c2ccccc2)CC1 (stereo not given) | – | 0.913
CCn1ccnc1CN1CCCC1C(=O)Nc1ccc(-n2ccnc2C)cc1 (stereo not given) | 0.893 | –
COCC1CCN(c2ccc(C(=O)NCCCc3c(C)noc3C)cn2)C1 (stereo not given) | – | 1.21
CN(Cc1ccc2ccccc2n1)C(=O)c1ccc(N2CC[C@H](O)C2)nc1 | – | 0.905
CCCCc1nc2cc(C(=O)NCC(O)CC)ccc2o1 (stereo not given) | – | 0.948
COc1cc(CN(C(=O)C2CC2)[C@H]2CCCCNC2=O)cc(OC)c1OCCc1ccsc1 | 0.892 | –
CC(C(=O)N1CCc2[nH]nc(-c3ccc(Cl)cc3)c2C1)N1CCCC1=O (stereo not given) | 0.86 | –
COCCC(=O)N1CCCC(CNS(=O)(=O)c2ccc(OC)cc2)C1 (stereo not given) | – | 0.925
COCCn1cnc2cc(NC(=O)C3CCCCC3)cc(C(=O)N(C)C(C)c3nc(C)cs3)c21 (stereo not given) | 0.813 | –
Cc1ccsc1C(=O)N1CCC(C2CCN(c3ncccn3)CC2)C1 (stereo not given) | 0.57 | –
COCC(=O)N1CCC(Oc2ccc(C(=O)N3CCC(COC)CC3)cc2)CC1 | – | 1.01
COc1ccc(F)c(CN2CCC(Oc3cc(OC)ccc3C(=O)N3CCCC3)CC2)c1 | – | 0.105
CCOc1ccccc1CN1CCN(Cc2ccc(O)cc2)CC1CCO (stereo not given) | – | 0.899
O=C(CCC1CCCN(C2CCCCCC2)C1)Nc1ccccc1F (stereo not given) | – | 0.98

Reformatted: four of the compounds above
Compound	bacterial growth OD600 (polymyxin B 0.75 µg/mL)	bacterial growth OD600 (polymyxin B 1 µg/mL)
Cc1nc(CNCC2(O)CCCN(Cc3ccc(F)c(F)c3)C2=O)cs1 (stereo not given)	–	0.895
CC(C)NC1CCCc2nc(-c3ccccc3)ncc21 (stereo not given)	–	0.796
OCC1CCN(c2ncc3c(n2)CCCC3NCc2cccc(F)c2)CC1 (stereo not given)	0.787	–
Cc1ccccc1Oc1ncccc1CNC(=O)CCc1c(C)nn(C)c1C	–	0.964
